{
  "source": "PubChem BioAssay AID588499",
  "about": "(NMMLSC, 2011)",
  "note": "Out of some 360,000 compounds screened, about 610 (0.17%) were called active. The inconclusive results got no clear call from the source; some entries with a clear call stand among them for comparison. No stated cut-off is given here; in the data, active means inhibition above about 30%; inconclusive means no clear call, values can overlap the other calls; inactive means below that.",
  "data": [
    {"tested_on": "Botulinum neurotoxin type A light chain protease (Clostridium botulinum A str. ATCC 3502)", "experiment": "blockers of BoNT/A LC substrate cleavage – biochemical, flow cytometry, MLPCN library, primary screen (AID 588499); further: plate controls were buffer without enzyme for full effect and enzyme alone for no effect", "conditions": "multiplex microsphere protease substrate cleavage, at 10 µM, active compounds read high", "values": [
      {"molecule": "Cc1cccc(-c2noc(CN(C)C(=O)COc3ccccc3)n2)c1", "inhibition": "inconclusive: -1.4%"},
      {"molecule": "O=C(NCCc1ccccc1)c1ncn[nH]1", "inhibition": "inconclusive: 1.2%"},
      {"molecule": "CCOC(=O)Cc1nnc(NC(=O)C(CC)Sc2nc(C)cc(=O)[nH]2)s1", "note": "(stereo not given)", "inhibition": "inactive: -0.4%"},
      {"molecule": "CC1CCC(C(C)C)C(OP(=O)(c2ccccc2)C(O)c2ccncc2)C1", "note": "(stereo not given)", "inhibition": "inactive: -0.8%"},
      {"molecule": "Oc1ccc(-c2nccs2)cc1", "inhibition": "inactive: 0.4%"},
      {"molecule": "Cc1ccc(-c2nnc(-c3ccncc3)n2-c2ccc(C)cc2)cc1", "inhibition": "inconclusive: 0.8%"},
      {"molecule": "O=C1c2cccc(OCC(=O)N3CCCc4ccccc43)c2CCN1Cc1ccc(F)cc1", "inhibition": "inactive: 0.6%"},
      {"molecule": "CN(C)c1cccc2c1c(NC(=O)Nc1ccc(F)cc1F)nn2C", "inhibition": "inconclusive: -6.1%"},
      {"molecule": "Cc1nn(C)c(C)c1/C=N/NC(=O)C(C)(C)Oc1ccc(Cl)cc1", "inhibition": "inconclusive: -3.1%"},
      {"molecule": "CCOC(=O)N1CCN(C(=O)/C(=C/c2ccccc2OC)NC(=O)c2ccccc2)CC1", "inhibition": "inconclusive: -0.3%"},
      {"molecule": "COC(=O)c1ccc(S(=O)(=O)NC(C)(C)C)n1C", "inhibition": "inconclusive: -50.1%"},
      {"molecule": "Cn1c(=O)c(=O)n(C)c2cc(S(=O)(=O)Nc3ccc4c(c3)OCCO4)ccc21", "inhibition": "inconclusive: -0.1%"},
      {"molecule": "COC(=O)c1ccc[n+](CC(=O)Nc2ccc(OC(F)F)cc2)c1", "inhibition": "inactive: 0.4%"},
      {"molecule": "c1ccc(C2(Cn3ccc4ccccc43)OCCO2)cc1", "inhibition": "active: 34.7%"},
      {"molecule": "CCNCCOC(c1ccccc1)c1ccccc1", "inhibition": "inconclusive: 8.7%"},
      {"molecule": "COCCCNC(=S)N/N=C/c1ccccc1O", "inhibition": "inactive: 1.5%"},
      {"molecule": "Cn1c(=O)c(=O)n(C)c2cc(S(=O)(=O)N3CCCCCC3)ccc21", "inhibition": "inconclusive: 5.4%"},
      {"molecule": "CC(C)=C1SC(N2CCN(c3cccc(C(F)(F)F)c3)CC2)=NC1=O", "inhibition": "inconclusive: -2.7%"},
      {"molecule": "COc1ccccc1CNC(=O)CSc1nc(=O)n(Cc2ccncc2)c2c1CCC2", "inhibition": "inconclusive: -1.7%"},
      {"molecule": "O=C(NCC(c1ccco1)N1CCc2ccccc2C1)c1cccc(Br)c1", "note": "(stereo not given)", "inhibition": "inconclusive: 0.8%"},
      {"molecule": "O=C1CCCC(O)=C1C1C2=C(CCCC2=O)Oc2ccccc21", "note": "(stereo not given)", "inhibition": "inconclusive: 2.1%"},
      {"molecule": "CNc1nnc(-c2ccc(N(C)C)cc2)s1", "inhibition": "inconclusive: -3.5%"},
      {"molecule": "c1csc(-c2nc3ccccn3c2NC2CCCCC2)c1", "inhibition": "inactive: 0.9%"},
      {"molecule": "CC(=O)c1cc2c(cc1NC(=O)CN1CCCCC1C)OCO2", "note": "(stereo not given)", "inhibition": "inconclusive: -2.4%"},
      {"molecule": "CN(C)S(=O)(=O)N1CCN(c2cccc(Cl)c2)CC1", "inhibition": "inconclusive: 2.6%"},
      {"molecule": "C=CCNC(=O)NC(=O)CN1C(=O)NC(c2ccccc2)(c2ccccc2)C1=O", "inhibition": "inactive: -0.6%"},
      {"molecule": "CC(C)CC(C(=O)NCC1CCCO1)N(C(=O)Cn1nnc(-c2ccc(F)cc2)n1)c1cccc(C(F)(F)F)c1", "note": "(stereo not given)", "inhibition": "inconclusive: -2.6%"},
      {"molecule": "CC(C)C(=O)Nc1nc(-c2ccccc2)ns1", "inhibition": "inconclusive: -0.9%"},
      {"molecule": "O=C(CCC1CCN(Cc2ccccc2Cl)CC1)NC1CC1", "inhibition": "inconclusive: -2.7%"},
      {"molecule": "O=C(COc1cccc(Cl)c1)NCc1ccccc1", "inhibition": "inconclusive: -1.3%"},
      {"molecule": "CCCS(=O)(=O)N1CCN(CC2CC=CCC2)CC1", "note": "(stereo not given)", "inhibition": "inconclusive: -3.8%"},
      {"molecule": "CC(=O)c1ccc(NC(=O)COC(=O)C2CC3C=CC2C3)cc1", "note": "(stereo not given)", "inhibition": "inactive: -0.1%"},
      {"molecule": "O=C(NCCCNC(=O)c1ccc(-c2cc(Cl)ccc2Cl)o1)c1cnccn1", "inhibition": "inactive: -0.9%"},
      {"molecule": "C/C(=N\\O)c1ccc2c3ccccc3n(C)c2c1", "inhibition": "inconclusive: -6.4%"},
      {"molecule": "CC(C)(C)OC(=O)C[C@H]1C/C=C\\C[C@H](CC(=O)N[C@H](CO)Cc2ccccc2)C(=O)N[C@@H](Cc2ccccc2)COC1=O", "inhibition": "inactive: -0.5%"},
      {"molecule": "Cc1ccc(C)c(NC(=O)CCC(=O)NNC(=O)c2cccc([N+](=O)[O-])c2)c1", "inhibition": "inconclusive: -2.2%"},
      {"molecule": "Nc1c(C(=O)N2CCCCC2)sc(=S)n1-c1ccccc1", "inhibition": "inactive: -1.4%"},
      {"molecule": "Cc1ccc(OC(C)C(=O)Nc2ccc(S(=O)(=O)Nc3cc(C)on3)cc2)cc1", "note": "(stereo not given)", "inhibition": "inconclusive: 6.6%"},
      {"molecule": "COc1ccccc1C(=O)NC(=O)COC(=O)c1cnc(C)cn1", "inhibition": "inconclusive: 16.5%"},
      {"molecule": "Cc1ccc(-c2nnc(SCC(=O)O)n2N)cc1", "inhibition": "inconclusive: -0.8%"},
      {"molecule": "Cc1nc(Nc2cccc(O)c2)c2c3c(sc2n1)CCC3", "inhibition": "inactive: -1.6%"},
      {"molecule": "O=S(=O)(NCCSc1ccccc1)c1cccs1", "inhibition": "inconclusive: -5.6%"},
      {"molecule": "c1ccc(CN2CCOCCOCCOCC2)cc1", "inhibition": "inactive: 3.8%"},
      {"molecule": "CC(=C\\C(=O)O)/C(=C\\c1cccc2ccccc12)C(=O)O", "inhibition": "inactive: 0.1%"},
      {"molecule": "COc1ccccc1CNC(=O)COC(=O)c1cc2ccccc2o1", "inhibition": "inactive: -0.1%"},
      {"molecule": "CCN(C(=O)c1ccco1)C1C2CC3CC(C2)CC1C3", "note": "(stereo not given)", "inhibition": "inactive: 2.5%"},
      {"molecule": "Clc1cccc(Nc2nc(-c3ccncc3)nc3ccccc23)c1", "inhibition": "inconclusive: -3%"},
      {"molecule": "O=C(NCCCN1CCOCC1)c1cc2nc(-c3ccco3)cc(C(F)(F)F)n2n1", "inhibition": "inactive: 2%"},
      {"molecule": "COc1ccc(NC(=O)NS(=O)(=O)c2ccc(C)cc2)c(OC)c1", "inhibition": "inactive: 2.1%"},
      {"molecule": "Cc1ccc(N(C(=O)Cn2nnc(-c3cccs3)n2)C(C(=O)NC2CCCC2)c2ccncc2)cc1", "note": "(stereo not given)", "inhibition": "inactive: -2.3%"},
      {"molecule": "COC1=CC(=O)c2c(ccc3ncnc(N)c23)C1=O", "inhibition": "inactive: -0.8%"},
      {"molecule": "O=C(CNC(=O)c1sc2ccccc2c1Cl)Nc1ccccc1F", "inhibition": "inconclusive: -0.5%"},
      {"molecule": "O=C1CSC(=Nc2cccc(Cl)c2Cl)N1Cc1cccnc1", "inhibition": "inconclusive: 7.7%"},
      {"molecule": "O=C(NC1CCCCC1)c1ccc(S(=O)(=O)N2CCCC2)cc1", "inhibition": "inconclusive: -1.5%"},
      {"molecule": "CCN1CCN(CCCNC(=O)c2ccc(NC(=O)C3=CSCCO3)cc2)CC1", "inhibition": "inactive: 0.6%"},
      {"molecule": "Cc1cccc(-n2nnnc2SCn2nnc3ccccc3c2=O)c1", "inhibition": "inactive: 3.7%"},
      {"molecule": "CC(=O)c1ccc(N2C(=O)CC(N3CCN(S(=O)(=O)c4ccc(C)c(C)c4)CC3)C2=O)cc1", "note": "(stereo not given)", "inhibition": "inactive: -0.1%"},
      {"molecule": "C(=N\\Nc1nncc2ccccc12)/c1ccccc1", "inhibition": "inconclusive: -7.7%"},
      {"molecule": "Cc1ccc(-c2[nH]nc3c2C(c2ccc(OC(=O)N4CCOCC4)cc2)C(C#N)=C(N)O3)cc1", "note": "(stereo not given)", "inhibition": "inconclusive: -0.9%"},
      {"molecule": "CN(C)N=Nc1ccc(S(=O)(=O)/N=C(\\O)c2ccccc2)cc1", "inhibition": "inconclusive: -2.8%"}
    ]}
  ]
}
